Results: paper PMC8625570
These are yes or no findings as the source states them, for the method shown. Binding can be weak; no strength is given.

Protein sequences, listed by entry. Tags and fused reporters are not part of them. Lines headed by an entry give the natural chain unless they say otherwise; changes in a name come on top. Residues count along the entry.
UniProt P60953: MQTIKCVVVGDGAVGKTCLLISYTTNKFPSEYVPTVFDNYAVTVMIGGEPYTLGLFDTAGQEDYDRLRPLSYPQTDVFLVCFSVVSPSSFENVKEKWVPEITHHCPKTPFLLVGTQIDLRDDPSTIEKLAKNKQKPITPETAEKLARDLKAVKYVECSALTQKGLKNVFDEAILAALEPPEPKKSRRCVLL
UniProt P46940, residues 863-1657: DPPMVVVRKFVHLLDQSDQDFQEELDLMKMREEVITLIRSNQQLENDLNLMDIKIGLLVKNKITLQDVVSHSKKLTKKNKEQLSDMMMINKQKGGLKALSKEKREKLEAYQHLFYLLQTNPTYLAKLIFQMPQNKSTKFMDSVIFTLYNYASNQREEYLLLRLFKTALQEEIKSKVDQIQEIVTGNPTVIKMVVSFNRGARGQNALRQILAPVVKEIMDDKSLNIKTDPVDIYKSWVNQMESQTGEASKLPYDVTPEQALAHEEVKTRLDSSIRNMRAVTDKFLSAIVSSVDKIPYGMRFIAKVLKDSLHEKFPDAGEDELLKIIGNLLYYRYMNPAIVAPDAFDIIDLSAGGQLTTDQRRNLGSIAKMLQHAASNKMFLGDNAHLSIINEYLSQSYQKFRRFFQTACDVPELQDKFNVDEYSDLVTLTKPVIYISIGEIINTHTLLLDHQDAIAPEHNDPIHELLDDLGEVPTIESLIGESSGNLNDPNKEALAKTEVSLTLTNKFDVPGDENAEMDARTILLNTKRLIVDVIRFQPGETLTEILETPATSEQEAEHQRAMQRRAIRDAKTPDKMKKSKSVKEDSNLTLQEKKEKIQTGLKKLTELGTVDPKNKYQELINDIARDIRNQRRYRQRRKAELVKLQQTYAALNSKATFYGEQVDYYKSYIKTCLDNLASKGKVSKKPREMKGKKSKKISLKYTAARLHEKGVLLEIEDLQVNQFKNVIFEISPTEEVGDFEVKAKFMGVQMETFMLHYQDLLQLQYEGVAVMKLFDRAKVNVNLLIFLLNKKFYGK

Target: CDC42 M45E/N52E (so in the source); residue 52 of CDC42 is given as T52 in the discussion) (human) (UniProt P60953)
Assay: stopped-flow fluorescence spectrometry; kon from 0.2 µM mGppNHp-bound RHO GTPase with 2-8 µM IQGAP1^C794; koff by displacing with 10 µM unlabeled RAC1-GppNHp from 2 µM IQGAP1^C794 with 0.2 µM GTPase; Kd calculated from the rate constants; 25 °C; both purified

Question: “IQGAP1^C794 (C-terminal half of human IQGAP1 with the GRD, RGCT and CT domains) (from UniProt P46940 863-1657) (domain or fragment)” was tested. Which binding did it give?
Answer: binds
